Source: PubChem BioAssay AID1224830 (NIAID, 2016)

Assay: 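Host factors that control LPS-induced TNF expression in human macrophages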 (primary screen)
Cells: human THP-1 monocytic leukaemia cells, TNF dual-luciferase reporter clone, PMA-differentiated to macrophage-like cells
Knock-down reagent: siRNA pool against human genes, 50 nM
Timing: LPS for 4 h, given about 3 days after siRNA transfection
Conditions: bacterial LPS (TLR4 ligand), 10 ng/ml
Read-out: 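TNF firefly reporter luminescence divided by renilla, normalised to the plate median, then turned into a robust z-score for each replicate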
Reading the numbers: TNF reporter robust z-score: higher = stronger TNF reporter response to LPS
Hit rule: 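a well is active when its z-score exceeds 2.8 or falls below -1.5; control wells carry no call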
Here is one part, drawn at random, of about 18,000 reagents tested. About 2,900 of them (16%) count as active. 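Calls are made per well; low scores hint the gene aids the LPS response, high scores that it dampens it.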 Entries without a mark were called inactive. Repeated entries: four replicate wells of each siRNA pool.

ZMYND10 [SID315456671]
- TNF reporter robust z-score: -0.5

ZMYND10 [SID315456671]
- TNF reporter robust z-score: 0.12

ZMYND10 [SID315456671]
- TNF reporter robust z-score: -0.29

ZMYND10 [SID315456671]
- TNF reporter robust z-score: -0.67

LRATD1 [SID315462491]
- TNF reporter robust z-score: 10.4 (active)

LRATD1 [SID315462491]
- TNF reporter robust z-score: 0.35

LRATD1 [SID315462491]
- TNF reporter robust z-score: 0.97

LRATD1 [SID315462491]
- TNF reporter robust z-score: 0

MLLT10 [SID315452376]
- TNF reporter robust z-score: -0.7

MLLT10 [SID315452376]
- TNF reporter robust z-score: 0

MLLT10 [SID315452376]
- TNF reporter robust z-score: -1.47

MLLT10 [SID315452376]
- TNF reporter robust z-score: -1.15

YKT6 [SID315454269]
- TNF reporter robust z-score: 1.01

YKT6 [SID315454269]
- TNF reporter robust z-score: 0.32

YKT6 [SID315454269]
- TNF reporter robust z-score: 0.38

YKT6 [SID315454269]
- TNF reporter robust z-score: 0.58

DKK4 [SID315455930]
- TNF reporter robust z-score: 0.74

DKK4 [SID315455930]
- TNF reporter robust z-score: 1.76

DKK4 [SID315455930]
- TNF reporter robust z-score: 1.23

DKK4 [SID315455930]
- TNF reporter robust z-score: 1.11

MRPL38 [SID315459061]
- TNF reporter robust z-score: 1.45

MRPL38 [SID315459061]
- TNF reporter robust z-score: -0.31

MRPL38 [SID315459061]
- TNF reporter robust z-score: -0.92

MRPL38 [SID315459061]
- TNF reporter robust z-score: -0.25

LAPTM4B [SID315457622]
- TNF reporter robust z-score: -0.99

LAPTM4B [SID315457622]
- TNF reporter robust z-score: -0.03

LAPTM4B [SID315457622]
- TNF reporter robust z-score: -1.01

LAPTM4B [SID315457622]
- TNF reporter robust z-score: -1.09

DNAI4 [SID315459485]
- TNF reporter robust z-score: 0.57

DNAI4 [SID315459485]
- TNF reporter robust z-score: 1.54

DNAI4 [SID315459485]
- TNF reporter robust z-score: 3.09 (active)

DNAI4 [SID315459485]
- TNF reporter robust z-score: -0.9

BTNL8 [SID315459556]
- TNF reporter robust z-score: 5.96 (active)

BTNL8 [SID315459556]
- TNF reporter robust z-score: 7.03 (active)

BTNL8 [SID315459556]
- TNF reporter robust z-score: 2.77

BTNL8 [SID315459556]
- TNF reporter robust z-score: 1.64

C4orf46 [SID315463087]
- TNF reporter robust z-score: 0.36

C4orf46 [SID315463087]
- TNF reporter robust z-score: -0.28

C4orf46 [SID315463087]
- TNF reporter robust z-score: 0.24

C4orf46 [SID315463087]
- TNF reporter robust z-score: 0.08

SGPP1 [SID315459876]
- TNF reporter robust z-score: 0.28

SGPP1 [SID315459876]
- TNF reporter robust z-score: 1.25

SGPP1 [SID315459876]
- TNF reporter robust z-score: -0.15

SGPP1 [SID315459876]
- TNF reporter robust z-score: 1.66

C6 [SID315447621]
- TNF reporter robust z-score: -0.09

C6 [SID315447621]
- TNF reporter robust z-score: -0.03

C6 [SID315447621]
- TNF reporter robust z-score: -0.05

C6 [SID315447621]
- TNF reporter robust z-score: 0.73

POU4F3 [SID315450716]
- TNF reporter robust z-score: 1.78

POU4F3 [SID315450716]
- TNF reporter robust z-score: 1.01

POU4F3 [SID315450716]
- TNF reporter robust z-score: 1.28

POU4F3 [SID315450716]
- TNF reporter robust z-score: 0.24

HILPDA [SID315456218]
- TNF reporter robust z-score: -0.57

HILPDA [SID315456218]
- TNF reporter robust z-score: -0.55

HILPDA [SID315456218]
- TNF reporter robust z-score: 0.25

HILPDA [SID315456218]
- TNF reporter robust z-score: 0.21

NAP1L4 [SID315450149]
- TNF reporter robust z-score: 2.57

NAP1L4 [SID315450149]
- TNF reporter robust z-score: 1.43

NAP1L4 [SID315450149]
- TNF reporter robust z-score: -1.36

NAP1L4 [SID315450149]
- TNF reporter robust z-score: 0.15

Records above whose target name starts with C or c (8):
C4orf46 [SID315463087]
- TNF reporter robust z-score: 0.36

C4orf46 [SID315463087]
- TNF reporter robust z-score: -0.28

C4orf46 [SID315463087]
- TNF reporter robust z-score: 0.24

C4orf46 [SID315463087]
- TNF reporter robust z-score: 0.08

C6 [SID315447621]
- TNF reporter robust z-score: -0.09

C6 [SID315447621]
- TNF reporter robust z-score: -0.03

C6 [SID315447621]
- TNF reporter robust z-score: -0.05

C6 [SID315447621]
- TNF reporter robust z-score: 0.73
